Test results: patent US20020155565A1 (priority 2000, published 2002)

What was measured:
[1] = general procedure: Fmoc solid-phase peptide synthesis; H-Sar-2-chlorotritylchloride-resin; DIC/HOBt; settings: conjugation step
[2] = general procedure: Fmoc solid-phase peptide synthesis; 2-chlorotrityl chloride resin; DIC/HOBt; settings: whole synthesis, scale of the general procedure 200 mg resin, 0.158

Substance	final HPLC purity [1]	final HPLC purity [2]
Benzyloxycarbonyl-Pro-Ala-Gly-Sar-Doxorubicin	HPLC>95%	
Benzyloxycarbonyl-Pro-Ala-Gly-Sar-OH		HPLC>95%
